At least one compound was matched to its structure with a doubt left.
Key:
SRC-3 = biological target: T1, SRC-3 (Homo sapiens, UniProt Q9Y6Q9); test: Gal4 luciferase reporter assay (pBIND-SRC-3 + pG5-LUC) in HeLa cells; assay type: cell-based; settings: 6 uM MCB-613 + 50 nM geldanamycin, 24 hours
T1 construct: expressed in transfected cells; host or cells: HeLa
Method: The constructs expressing the Gal4 responsive luciferase reporter (pG5-luc), Gal4 DBD fusion with SRC-1, […] (pBIND-SRC-1/-2/-3), MMP2 or MMP13 promoter driven luciferase reporter (MMP2-luc, MMP13-luc) were prepared. Twenty-four hours before transfection, HeLa cells were plated in 24-well dishes. The indicated expression plasmids were transfected into cells using Lipofectamine 2000 according to the manufacturer's instructions.
After various compound treatments, cells were lysed in luciferase lysis buffer and assayed for luciferase activity using the ONE-Glo luciferase assay system (Promega, Madison, Wis.). All luciferase activities were normalized to protein concentration determined by Bradford assay (Bio-Rad, Hercules, Calif.).
HeLa cells were transfected with a Gal4 responsive luciferase reporter (pG5-luc) and a construct encoding SRC-1, SRC-2 or SRC-3 fused with the DNA binding domain of Gal4 (pBIND-SRC-1, pBIND-SRC-2 or pBIND-SRC-3) were treated with the indicated compounds.

By UniProt entry, the sequences of proteins in these tests, tags left out.
UniProt Q9Y6Q9, whole entry: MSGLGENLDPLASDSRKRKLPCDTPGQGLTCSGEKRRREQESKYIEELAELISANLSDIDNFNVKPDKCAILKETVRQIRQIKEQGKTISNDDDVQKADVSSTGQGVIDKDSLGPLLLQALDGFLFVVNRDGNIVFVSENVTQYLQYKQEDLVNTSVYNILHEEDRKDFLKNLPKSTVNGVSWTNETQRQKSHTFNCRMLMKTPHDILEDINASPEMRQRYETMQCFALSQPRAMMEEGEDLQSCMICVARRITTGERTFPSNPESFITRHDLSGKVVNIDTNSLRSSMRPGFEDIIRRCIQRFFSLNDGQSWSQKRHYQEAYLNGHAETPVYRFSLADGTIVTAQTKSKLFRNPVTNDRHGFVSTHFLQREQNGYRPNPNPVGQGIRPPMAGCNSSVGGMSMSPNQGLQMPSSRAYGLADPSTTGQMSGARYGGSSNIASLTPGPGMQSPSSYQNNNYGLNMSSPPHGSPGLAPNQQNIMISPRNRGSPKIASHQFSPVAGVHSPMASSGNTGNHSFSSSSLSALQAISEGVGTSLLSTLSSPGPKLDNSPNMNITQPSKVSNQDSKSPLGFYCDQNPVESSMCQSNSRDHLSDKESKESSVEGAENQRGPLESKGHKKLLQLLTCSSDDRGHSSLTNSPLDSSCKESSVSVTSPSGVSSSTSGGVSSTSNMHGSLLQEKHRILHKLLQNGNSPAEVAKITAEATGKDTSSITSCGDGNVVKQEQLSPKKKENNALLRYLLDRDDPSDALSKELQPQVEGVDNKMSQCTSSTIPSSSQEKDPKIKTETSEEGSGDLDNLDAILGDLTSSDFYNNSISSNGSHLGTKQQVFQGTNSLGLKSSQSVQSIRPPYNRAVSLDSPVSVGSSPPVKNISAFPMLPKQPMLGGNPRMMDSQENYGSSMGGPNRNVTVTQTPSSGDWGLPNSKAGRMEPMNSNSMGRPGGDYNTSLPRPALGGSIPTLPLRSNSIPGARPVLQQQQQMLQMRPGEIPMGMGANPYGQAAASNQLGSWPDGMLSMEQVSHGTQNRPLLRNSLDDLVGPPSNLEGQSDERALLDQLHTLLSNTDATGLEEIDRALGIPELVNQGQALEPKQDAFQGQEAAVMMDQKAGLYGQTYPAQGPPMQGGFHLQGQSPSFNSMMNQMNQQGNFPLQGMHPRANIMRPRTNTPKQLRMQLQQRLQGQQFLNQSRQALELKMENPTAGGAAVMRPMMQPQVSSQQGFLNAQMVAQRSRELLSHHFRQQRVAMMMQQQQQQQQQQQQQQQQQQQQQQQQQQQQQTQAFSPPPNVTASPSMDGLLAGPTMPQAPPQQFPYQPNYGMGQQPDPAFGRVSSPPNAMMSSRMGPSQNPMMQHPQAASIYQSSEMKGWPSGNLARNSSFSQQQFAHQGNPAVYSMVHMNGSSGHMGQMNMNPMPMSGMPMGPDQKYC

HeLa cells = test: MTS cell viability assay, HeLa cells; assay type: cell-based; settings: suboptimal concentrations, 48 hours (cell death)

COC1=C2C[C@@H](C)C[C@H](OC)[C@H](O)[C@@H](C)/C=C(\C)[C@H](OC(N)=O)[C@@H](OC)/C=C\C=C(/C)C(=O)NC(=CC1=O)C2=O [geldanamycin]
activation of SRC-3 in combination with MCB-613 (SRC-3): synergism | ER stress and cell death in combination with MCB-613 (HeLa cells): synergized

— patent publication US11312676B2, “Small molecule stimulators of steroid receptor coactivator proteins and their use in the treatment of cancer” (BAYLOR COLLEGE OF MEDICINE, priority 2014, dated 2022)
